This is an account of results in publication PMC12196928, “Site-Directed Mutagenesis Mediated by Molecular Modeling and Docking and Its Effect on the Protein–Protein Interactions of the bHLH Transcription Factors SPATULA, HECATE1, and INDEHISCENT” (Plants, 2025).

Positions count from the first letter of the chain named. In names and notes the source's numbering stands. No constants are given. Whether binding was seen depends on the method and setting. In cells and extracts the contact can be indirect. Tags and fused reporters may be left off the sequences shown.

The target in assay [1] is T1, VN:SPT (SPATULA fused to the N-terminal fragment of Venus YFP) (Arabidopsis thaliana) (UniProt Q9FUA4).
T1 sequence: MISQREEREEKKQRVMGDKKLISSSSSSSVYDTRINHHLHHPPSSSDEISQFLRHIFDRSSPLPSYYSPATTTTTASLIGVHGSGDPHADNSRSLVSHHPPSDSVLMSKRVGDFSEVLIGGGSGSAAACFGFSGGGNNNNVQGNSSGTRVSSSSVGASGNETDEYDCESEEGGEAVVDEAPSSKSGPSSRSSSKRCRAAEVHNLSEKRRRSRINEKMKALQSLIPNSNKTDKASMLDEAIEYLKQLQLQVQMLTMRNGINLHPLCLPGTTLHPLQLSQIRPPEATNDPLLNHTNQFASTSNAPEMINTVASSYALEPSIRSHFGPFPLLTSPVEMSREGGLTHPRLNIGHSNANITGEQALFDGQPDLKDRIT
The experiment in a line: split reporter; BiFC with split Venus YFP (VN 1-154, VC 155-238) in Arabidopsis Col-0 mesophyll protoplasts, PEG-Ca transfection, 35S promoter, read 16 h after transfection by confocal microscopy; frequency = YFP-positive protoplasts/total protoplasts x 100, four images of about 200 protoplasts ….

Assay [2] addresses T2, VN:SPT-4A (SPATULA V176A-V177A-D178A-E179A fused to the N-terminal fragment of Venus YFP) (Arabidopsis thaliana) (UniProt Q9FUA4).
T2 sequence: T1 sequence with V176A, V177A, D178A, E179A
The assay is described as above.

B1: VC:HEC1-2A (HECATE1 R138A-H139A fused to the C-terminal fragment of Venus YFP) (protein, UniProt Q9FHA7 1-241)
chain: MDSDIMNMMMHQMEKLPEFCNPNSSFFSPDHNNTYPFLFNSTHYQSDHSMTNEPGFRYGSGLLTNPSSISPNTAYSSVFLDKRNNSNNNNNGTNMAAMREMIFRIAVMQPIHIDPEAVKPPKRRNVRISKDPQSVAAAARRERISERIRILQRLVPGGTKMDTASMLDEAIHYVKFLKKQVQSLEEQAVVTGGGGGGGGRVLIGGGGMTAASGGGGGGGVVMKGCGTVGTHQMVGNAQILR
For B1, the binding entry in assay [1] and in assay [2] was “no binding” each time.

B2: VC:HEC1 (HECATE1 fused to the C-terminal fragment of Venus YFP) (natural protein, Arabidopsis thaliana, UniProt Q9FHA7 1-241, looked up)
chain: B1 chain with A138R, A139H
notes: HECATE1 (HEC1), bHLH transcription factor of Arabidopsis thaliana, AT5G67060; source: Arabidopsis Col-0 mesophyll protoplasts, transfected (PEG-Ca), in cells; not shown: Venus YFP C-terminal fragment (residues 155-238)
On to B2, for which the binding result in assay [2] is “no binding”.
